{"source": "patent US20210308089A1", "about": "“METHODS OF TREATING AND/OR PREVENTING VIRAL INFECTIONS AND/OR DISEASES CAUSED BY VIRUSES IN A SUBJECT IN NEED THEREOF” (priority 2020, published 2021)", "key": {"[1]": {"tested_on": "hs-CRP, D-dimer, ESR, blood counts, NLR, systemic immune-inflammation index", "experiment": "VASCEPA-COVID-19: inflammatory biomarkers, baseline to day 14 follow-up, IPE vs usual care", "assay_type": "in vivo, human", "details": "within IPE group, listed as IPE", "protocol": "This was a 14-day long, prospective, multi-site, two-armed, randomized, open-label study of approximately 100 individuals in Canada with a COVID-19-positive diagnosis or who have recently undergone testing for SARS-CoV-2. […] Blood samples are collected to determine if IPE use lowers circulating pro-inflammatory biomarkers.\nEligible patients were randomly allocated to the IPE group or the usual care group. Randomization was performed using envelope randomization via stratification using random permuted blocks. Patients allocated to the IPE group received a loading dose of 4 g IPE twice daily for 3 days followed by 2 g twice daily for 11 days. The usual care group received no intervention. Participant characteristics were obtained at baseline, while blood samples and clinical outcomes were obtained/measured at baseline and at follow-up. […]\nBaseline characteristics, biomarkers, and clinical endpoints were described as frequencies and percentages (for categorical data) or medians with interquartile ranges (for continuous variables). […] Remaining unadjusted secondary biomarker data were evaluated via two-tailed within-group Wilcoxon Signed Rank Tests and between-group Mann-Whitney Tests. The prevalence and change from baseline total and individual domain FLU-PRO© scores were calculated as measures of alterations in symptom severity. […]"}, "[2]": {"tested_on": "statin-treated hypertriglyceridemic patients with cardiovascular disease or at high risk for cardiovascular disease", "experiment": "REDUCE-IT: time to first occurrence of adjudicated cardiovascular events (primary, secondary, tertiary endpoints), AMR101 4 g/day vs placebo", "assay_type": "in vivo, human", "details": "REDUCE-IT ITT", "source_text": "The following study, also referred to as the REDUCE-IT clinical trial, was a large cardiovascular (CV) outcome trial designed to assess CV risk reduction benefit of AMR101 treatment (commercially known as VASCEPA®) versus placebo on the 5-point primary composite endpoint: CV death, nonfatal stroke, nonfatal myocardial infarction (MI), coronary revascularizations, or unstable angina requiring hospitalization. […]\nThe primary objective of this study was, in patients at LDL-C goal while on statin therapy, with established cardiovascular disease (CVD) or at high risk for CVD, and hypertriglyceridemia (e.g., fasting triglycerides(TG) ≥200 mg/dL and <500 mg/dL), to evaluate the effect of AMR101 4 g daily on time from randomization to first occurrence of any component of the composite of the following major CV events: CV death; nonfatal MI (including silent MI); electrocardiograms (ECGs) were performed annually for the detection of silent MIs); nonfatal stroke; coronary revascularization; and unstable angina determined to be caused by myocardial ischemia by invasive/non-invasive testing and requiring emergent hospitalization. […]"}}, "note": "Entries after “also recorded” stand apart in the source; their conditions may differ. At least one compound was matched to its structure with a doubt left.", "data": [{"smiles": "CC/C=C\\C/C=C\\C/C=C\\C/C=C\\C/C=C\\CCCC(=O)OCC", "note": "[icosapent ethyl, eicosapentaenoic acid ethyl ester]", "values": [{"measurement": "D-dimer levels from baseline to follow-up", "setting": "[1]", "result": "reduction; also recorded: significantly reduced"}, {"measurement": "Sudden cardiac death: n/N", "setting": "[2]", "result": "61/4089"}]}]}
